In patent publication US11420962B2, “Indene derivatives useful in treating pain and inflammation” (TARO PHARMACEUTICALS INC., priority 2018, dated 2022):

Tests used:
Mice (male, C57Bl/6) = assay: Formalin pain assay in mice; assay type: in vivo
Method: Mice (male, C57BL/6) were placed singly in a Perspex chamber for approximately 30 min on three successive days to acclimate and thereby reduce stress-induced behaviors. On the fourth day, the experimental animals received a 25 μl injection of 2.5% formalin beneath the left plantar skin using a 29-gauge syringe. […] The total time spent on flinches/licking/biting of the hind paw was recorded by visual observation for every 5 min period/interval for total observation duration of 60 min in two phases, the early phase (0-5 min) and the late phase (15-40 min). Observers were blinded to the treatment group allocation.
For test compounds, the % protection from 0-60 min was used to assess activity. Scoring for the test compounds was as follows: “A” represents a % protection of 81 to 100%, “B” represents a % protection of 61 to 80%, “C” represents a % protection of 31 to 60% and “D” represents a % protection of 0 to 30%.

[1] = tested on: Rats (female, Sprague-Dawley); assay: Rat ketamine cystitis (visceral pain); assay type: in vivo; conditions: 10 mg/kg dose
Method: Rats (female, Sprague-Dawley) received daily intraperitoneal injections of saline (sham control) or ketamine (50 mg/kg) for 14 days. Representative compounds of the invention (i.e., test compounds) were administered PO, QD starting on Day 0 at doses of 10, 3 or 1 mg/kg and Tramadol was used as a reference control compound at 10 mg/kg. Referred mechanical sensitivity was assessed on Day 7 and Day 14 by application of a series of von Frey filaments to the lower abdomen and the nociceptive threshold was scored.

COc1cccc(C2(O)CCCCC2CN(C)C)c1 (stereo not shown) [tramadol, reference compound]
% inhibition, early phase (neurogenic pain) (Mice (male, C57Bl/6); 10 mg/kg dose, 0-5 min): 51%
% inhibition, late phase (inflammatory pain) (Mice (male, C57Bl/6); 10 mg/kg dose, 15-40 min): 62%
Average AUC % Inhibition (Mice (male, C57Bl/6); reference compound): 59%
increase in the nociceptive threshold (relative to unchallenged) [1]: 85%
